B1: tRNA (parent)
chain: GUUCCGUUGGCGUAAUGGUAACGCGUCUCCCUCCUAAGGAGAAGACUGCGGGUUCGAGUCCCGUACGGAACG

This sample is rich in variants without activity. Some results are limits rather than exact numbers.

The variants in this series derive from B1. Put plainly: yeast fitness relative to wild type (ratio to wild type); higher = fitter; tRNA-Arg(CCU), competitive growth, 37 C, YPD. The method, boiled down: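 Changes in genotype frequencies gave Darwinian fitness relative to wild type. Frequencies were read by 100-nucleotide paired-end sequencing of gene amplicons before and after pooled Saccharomyces cerevisiae strains, carrying tRNA-Arg(CCU) gene variants at the native locus, were competed in YPD at 37°C for 24 hours in six replicates. A genotype was kept only with ≥ 100 starting reads, and estimates < 0.5 were set to 0.5.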
As for GUUCCGUUGGCGUAAUGGUCACGCGUCUCCCUCCUAAGGAAAAGACUGCGGGUUCGAUUCCCGUACGGUACG, the yeast fitness was not above 0.5.
GUUCCGUUCGCGUAAUGGUAACGCGUCUCCCUCCAAAGGAGAUGACUGCGGGUUCGAGUCCCGUACGGAACG: the yeast fitness was not above 0.5.
As for GUUCCGUUGGCGUAAUGGUAACGCGUCUCCGUCCUAAGGAGAAGAGUGCGGGUUCGCGUCCCGUACGGAACG, the yeast fitness was not above 0.5.
With GUUCCGUUGCCGUAAUGGUAACGCGUCUCCCUACUAAGGUGAAGACUGCGGGUUCGAGUCCCGUACGGCACG the figure was not above 0.5.
Take GUUCCGCUGGCGUAAUGGUAACGCGUCUCCCUCCUAAGGAGAAGACUGCGGGUUCGAGUCCGGUGCGGAACG: the yeast fitness was not above 0.5.
As to GUUCUGUUGGCAUAAUGGUAACGCGUCUACCUCCUAAGGAGAAGACUGCGGGUUCGAGGCCCGUACGGAACG, the yeast fitness was not above 0.5.
Take GUUCCGUUGGCGUAAUGGUAACGCGUCUCCCUCCCAAGGAGAAGACUGCAGGUUGGAGUCCCGUACGGAACG: the yeast fitness was not above 0.5.
With GUUCCGCUGGCGUAAUGGUACCGCGUCUCCCUCCUAAGGAGAAGACUGCCGGUUCGAGUCCCCUACGGAACG the figure was not above 0.5; with GUUCCGUUGACGUAAUGCUAACGUGUCUCGCUCCUAAGGAGAAGACUGCGGGUUCGAGUCCCGUACGGAACG, not above 0.5; with GUUCGGUUGGCGUAAAGGUAACGGGUCUCCCUCCUAAGGAGAAGACUGGGGGUUCGAGUCCCGUACGGAACG, not above 0.5.
On to GUUGCGUUGGCGUAAUGGUAAGGCGUCUCCCUCCUAAGGAGAAGACUGCGGGUUCGAGUCCUGUACGGACCG, for which the yeast fitness was not above 0.5.
To GUUCCGUUGGCGUAAUGGUAACGCGUCUCCCUCCCACGGAGAAGACUGAGGGUUCGAGUCCCGUAUGGAACG belongs not above 0.5; to GGUCUGUUGGCGUAAUGGUAACGCGUCUCCCCCCUAAGGAGAAGACUGCGGGUUUGAGUCCCGUACGGAACG, 0.581; to GUUCCAUUGGCGUAAUGCUAGCGCGUCUCCCUCCUAAGGAGAAGACUGCGGGUUCGAGUCCCGUACGGAACG, not above 0.5.
Regarding GCUCCGAUGGCGUAAUGGUAACGCGUCUCCCUCCUAGGGAGUAGACUCCGGGUACGAGUCCCGUACGGAACG, the yeast fitness is not above 0.5.
Turning to GUUCCGUUGGCGUAAAGGUAACGAGUCUCGCUCUUAAGGAGAAGACUGCGGGUUAGAGUCCCGUACAGAACG, the yeast fitness was not above 0.5.
With GUUGCGUUGGCGUAAUGGUAACGCGUCUCCCUCCUAAGGUGAAGUCUGCGGGUUCGAGUCCCGUGCGGAACG, the yeast fitness is not above 0.5.
With GUUCCGUUGGCGUAAUAGUAACGCGUCUCCCUCCUAAGGAGAAGACUGGGGGUUCAAGUGCCGUACGGAACG the figure was not above 0.5.
To GUUCCGUUGGCGUAAUGGUGACGCGUCUCCCUUCUAAGGAGAAGACUGCCGGUUCGCGUCCCGUACGGAACG belongs not above 0.5; to GUUCCGUUGGUGUAAUGGCAACGCGUCUCCCUGCUAUGGAGAAGACUGCGGGUUCGAGUCCCGUACGGAACG, not above 0.5.
For the variant GUUCCGUAGGCGACAUGGUAACGCGUCUCCCUCCUAAGGAGAAGACUGCGGGUUCGAGUCCCGUACGGAACG, the yeast fitness is not above 0.5.
As to GUUUCGUUGGCGUAAUGCUAACGCGUCUCCCUCCUAAGGAGAAGACUGCGGGUGCGGGUCCCGUAAGGCACG, the yeast fitness is not above 0.5.
To GUUCCGUUGCCGUAAUGGAAACGCGUCUGCCUCUUAAGGAGAAGACUGCGGGUUCGAGUCCCGUACGGAACG belongs not above 0.5; to GUUCCGUUGGCGUAAUGGUAACGGGUCUCCGUCCUAAGGAGAAGACAGCGGGUUCGAGUCCCGUACGGAACG, not above 0.5.
To GUUCUGUUGGUGCAAUGGUAACGCGUCUCUCUCCUAAGGGGAAGACUGCGGGUUCGAGUCCCGUACGGAACG belongs not above 0.5.
On to GUUCCGUUGGCGUAAUAGUACCGCGUCUCCCUCCUAAGGAGAAGACUGCGGGUUCGAGUCCCGUACGGAACG, for which the yeast fitness was 0.67.
Take GUUCCGUUGGCGUAAUGGUAACGCGUCUCCCUCCGAAGGAGAAGACUGCGGGUUCGAGUCCCGCUCGGAACG: the yeast fitness is not above 0.5.
For GUUCCCUUGGCCUAACGGUAGCGCGUCUCCCUCCUAAGGAGAAGACUGCGGGUUCCAGUCCCGUACGGAACG, the yeast fitness was not above 0.5.
Turning to GUGCCGUUGGCGUAAUGGUAACGCGUCUCCCUCCUACGGAGUAGACUGCGGGUUCGAGUCCCGUACGGAACG, the yeast fitness is not above 0.5.
For GUUCGGUUGGCGAAAUGGUAACGCGUCUCUCUCCUAAGGAGAAGACUGCGGGUUCGAGUCCUGUACGGAACG, the yeast fitness was not above 0.5.
To GUUCCGUUGGCGUAAUCAUAACGCGUCUCCAUCCUAAGGAGAAGACUGCGGGUUCGAGUCCCGUAAGGAACG belongs not above 0.5.
To GUUCCGUUGCCGUAAUGGUAAAGCGUCUCCCUCCUAAGGAGAAGACUGCGGGUUCCAGCCCCGUACGGAACG belongs not above 0.5; to GUUCCGUUGGCGUAAUGGGAACGCGUCUCCCUCCUAAGGAGAAAAGUGCGGGUUCGAGUCCCGUACGGAACG, 0.946; to GUUCCGUUGGCGUAAUGGUAACGCGGCUCCCUCCUAAGGAGAAGACUGCCGGUUCGAGUCCCGUAUGGAACG, not above 0.5.
With GUACCGUUGGCGUAAUCGUCACGCGUCACCCUCCUAAGGAGAAGACUGCGGGUUCGAGUCCCGUACGGAACG the figure was not above 0.5; with GUUCCGUUGGCGUAAUGGUAACGCCUCUGCCGCCUAAGGAGAAGACUGCGCGUUCGAGUCCCGUACGGAACG, not above 0.5; with GUUUCGUUGGCGUAAUGGUAAGGCGUCACCCUCCUUAGGAGAAGACUGCGGGUUCGAGUCCCGUUCGGAACG, not above 0.5.
With GUUCCGUUGGAGUAACGGUAGCGCGUCUCCCUCCUAAGGAGAAGACUGCGGGUUCGAGUCCAGUACGGAACG, the yeast fitness is not above 0.5.
